Data as given in PubChem BioAssay AID743121 (NCATS, 2013)
The deposit covers about 26,000 reagents; below is a random part of them. In the full data, 167 (0.63%) were called active. 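Calls are per gene from RSA p-values that are not deposited; an individual active-marked siRNA can sensitise only weakly.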 Entries without a mark were called inactive. Reagents against one gene are numbered here.

Purpose: 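Partners whose loss is lethal together with topoisomerase I blockade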 (primary screen)
Cell system: MDA-MB-231 cells, a human breast cancer line
Knock-down reagent: single siRNA against human genes, 20 nM siRNA (0.8 pmol per well)
Duration: 120 h (drug added 48 h after transfection, read 72 h later)
Challenge: camptothecin 20 nM (about EC30) for 72 h; vehicle 0.1% DMSO in parallel plates
Measurement: 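Cell viability by ATP luminescence (CellTiter-Glo) as % of non-targeting siRNA wells, and the log2 ratio of viability without drug over viability with camptothecin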
Reading the numbers: log2 vehicle/camptothecin viability: higher = stronger sensitisation to camptothecin; viability with camptothecin and viability without drug: higher = more viable cells
Active means: 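Each gene scored by redundant siRNA activity (RSA) over its individual siRNA ratios; a gene is called active at p < 0.001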

gene	reagent	log2 vehicle/camptothecin viability	viability with camptothecin (% of control)	viability without drug (% of control)
HPRT1 (GeneID 3251)	1	-0.216	90.9	78.3
HPRT1 (GeneID 3251)	2	-0.3	70.4	57.2
HPRT1 (GeneID 3251)	3	-0.191	45.8	40.1
ALS2 (GeneID 57679)	1	-0.33	78.1	62.1
ALS2 (GeneID 57679)	2	0.442	56.3	76.5
ALS2 (GeneID 57679)	3	-0.412	106	79.3
ALS2 (GeneID 57679)	4	-0.0225	90.6	89.2
NEURL2 (GeneID 140825)	1	0.205	65.4	75.4
NEURL2 (GeneID 140825)	2	0.0452	36.8	38
NEURL2 (GeneID 140825)	3	-0.473	88.5	63.7
NEURL2 (GeneID 140825)	4	-0.18	95.7	84.5
PIK3R5 (GeneID 23533)	1	0.296	23.8	29.2
PIK3R5 (GeneID 23533)	2	-0.843	51.7	28.8
PIK3R5 (GeneID 23533)	3	-0.519	68.8	48
PIK3R5 (GeneID 23533)	4	-0.0438	104	101
BCLAF3 (GeneID 256643)	1	-0.0995	99.2	92.5
BCLAF3 (GeneID 256643)	2	-0.622	80.7	52.4
BCLAF3 (GeneID 256643)	3	0.0379	99.3	102
BCLAF3 (GeneID 256643)	4	-0.1	95.3	88.9
HCFC1R1 (GeneID 54985)	1	-0.233	66.6	56.7
HCFC1R1 (GeneID 54985)	2	0.174	51.8	58.5
HCFC1R1 (GeneID 54985)	3	-0.4	90.8	68.8
FBXL17 (GeneID 64839)	1	-0.0234	108	106
FBXL17 (GeneID 64839)	2	-0.433	8.27	6.13
FBXL17 (GeneID 64839)	3	-0.0818	55.2	52.2
FBXL17 (GeneID 64839)	4	-0.313	87.8	70.6
AK4 (GeneID 205)	1	-0.148	52.4	47.3
AK4 (GeneID 205)	2	-0.148	70.7	63.8
AK4 (GeneID 205)	3	0.504	28.4	40.3
AK4 (GeneID 205)	4	-0.548	91.3	62.4
MYF6 (GeneID 4618)	1	-0.515	65.9	46.1
MYF6 (GeneID 4618)	2	0.478	13.3	18.5
MYF6 (GeneID 4618)	3	-0.185	89.7	78.9
LTB4R2 (GeneID 56413)	1	-0.0976	93.6	87.5
LTB4R2 (GeneID 56413)	2	0.157	61.3	68.3
LTB4R2 (GeneID 56413)	3	-0.173	73.2	64.9
PIK3AP1 (GeneID 118788)	1	-0.105	87.1	81
PIK3AP1 (GeneID 118788)	2	-0.428	80.8	60.1
PIK3AP1 (GeneID 118788)	3	-0.65	93	59.2
PIK3AP1 (GeneID 118788)	4	-0.412	78.7	59.2
MAP3K10 (GeneID 4294)	1	0.556	7.49	11
MAP3K10 (GeneID 4294)	2	-0.2	52.7	45.9
MAP3K10 (GeneID 4294)	3	-0.121	99.1	91.2
MAP3K10 (GeneID 4294)	4	-0.456	46.1	33.6
GPR171 (GeneID 29909)	1	-0.345	58	45.7
GPR171 (GeneID 29909)	2	-0.173	99.4	88.1
GPR171 (GeneID 29909)	3	0.153	73.4	81.6
GPR171 (GeneID 29909)	4	0.0222	36.6	37.2
RNF31 (GeneID 55072)	1	0.517 (active)	49.9	71.4
RNF31 (GeneID 55072)	2	0.488 (active)	74.2	104
RNF31 (GeneID 55072)	3	0.423 (active)	68.9	92.3
RNF31 (GeneID 55072)	4	1.49 (active)	28.3	79.3
NSMF (GeneID 26012)	1	0.235	44.2	52
NSMF (GeneID 26012)	2	0.538	42.7	62.1
NSMF (GeneID 26012)	3	-0.0662	85.9	82
NSMF (GeneID 26012)	4	0.0151	30.5	30.8
CCL27 (GeneID 10850)	1	-0.139	94.1	85.5
CCL27 (GeneID 10850)	2	-0.524	78	54.2
CCL27 (GeneID 10850)	3	-0.339	63.6	50.3

In a second layout: results already given
{"gene": "AK4 (GeneID 205)", "reagent": 2, "log2 vehicle/camptothecin viability": -0.148, "viability with camptothecin (% of control)": 70.7, "viability without drug (% of control)": 63.8}
{"gene": "AK4 (GeneID 205)", "reagent": 3, "log2 vehicle/camptothecin viability": 0.504, "viability with camptothecin (% of control)": 28.4, "viability without drug (% of control)": 40.3}
{"gene": "AK4 (GeneID 205)", "reagent": 4, "log2 vehicle/camptothecin viability": -0.548, "viability with camptothecin (% of control)": 91.3, "viability without drug (% of control)": 62.4}
{"gene": "MYF6 (GeneID 4618)", "reagent": 1, "log2 vehicle/camptothecin viability": -0.515, "viability with camptothecin (% of control)": 65.9, "viability without drug (% of control)": 46.1}
{"gene": "MYF6 (GeneID 4618)", "reagent": 2, "log2 vehicle/camptothecin viability": 0.478, "viability with camptothecin (% of control)": 13.3, "viability without drug (% of control)": 18.5}
{"gene": "MYF6 (GeneID 4618)", "reagent": 3, "log2 vehicle/camptothecin viability": -0.185, "viability with camptothecin (% of control)": 89.7, "viability without drug (% of control)": 78.9}
{"gene": "LTB4R2 (GeneID 56413)", "reagent": 1, "log2 vehicle/camptothecin viability": -0.0976, "viability with camptothecin (% of control)": 93.6, "viability without drug (% of control)": 87.5}
{"gene": "LTB4R2 (GeneID 56413)", "reagent": 2, "log2 vehicle/camptothecin viability": 0.157, "viability with camptothecin (% of control)": 61.3, "viability without drug (% of control)": 68.3}
{"gene": "LTB4R2 (GeneID 56413)", "reagent": 3, "log2 vehicle/camptothecin viability": -0.173, "viability with camptothecin (% of control)": 73.2, "viability without drug (% of control)": 64.9}
{"gene": "PIK3AP1 (GeneID 118788)", "reagent": 1, "log2 vehicle/camptothecin viability": -0.105, "viability with camptothecin (% of control)": 87.1, "viability without drug (% of control)": 81}
{"gene": "PIK3AP1 (GeneID 118788)", "reagent": 2, "log2 vehicle/camptothecin viability": -0.428, "viability with camptothecin (% of control)": 80.8, "viability without drug (% of control)": 60.1}

More records follow.
gene	reagent	log2 vehicle/camptothecin viability	viability with camptothecin (% of control)	viability without drug (% of control)
NR2F6 (GeneID 2063)	1	-0.00367	73.8	73.6
NR2F6 (GeneID 2063)	2	-0.701	88	54.1
NR2F6 (GeneID 2063)	3	-0.194	70.3	61.5
NR2F6 (GeneID 2063)	4	0.0159	83	83.9
MTMR7 (GeneID 9108)	1	-0.00508	87.1	86.8
MTMR7 (GeneID 9108)	2	-0.0272	46.8	45.9
MTMR7 (GeneID 9108)	3	1.07	27.7	58.3
MTMR7 (GeneID 9108)	4	-0.764	61.4	36.2
AFP (GeneID 174)	1	-0.118	76.8	70.7
AFP (GeneID 174)	2	-0.309	146	118
AFP (GeneID 174)	3	-0.11	42.1	39
RTN4IP1 (GeneID 84816)	1	0.155	87	96.9
RTN4IP1 (GeneID 84816)	2	0.805	41.7	72.9
RTN4IP1 (GeneID 84816)	3	-0.151	125	112
RTN4IP1 (GeneID 84816)	4	0.102	111	119
GFRA2 (GeneID 2675)	1	-0.0546	83.9	80.8
GFRA2 (GeneID 2675)	2	-0.104	70.8	65.9
GFRA2 (GeneID 2675)	3	-0.288	92.3	75.6
GFRA2 (GeneID 2675)	4	-0.098	85.9	80.3
DDB2 (GeneID 1643)	1	-0.0227	104	102
DDB2 (GeneID 1643)	2	-0.0818	98.8	93.4
DDB2 (GeneID 1643)	3	-0.132	85.8	78.3
DDB2 (GeneID 1643)	4	0.00832	107	108
XPO5 (GeneID 57510)	1	-0.292	90.4	73.8
XPO5 (GeneID 57510)	2	-0.0882	55.9	52.6
XPO5 (GeneID 57510)	3	-0.57	93.8	63.2
XPO5 (GeneID 57510)	4	0.204	73	84.1
CD276 (GeneID 80381)	1	0.144	80.1	88.5
CD276 (GeneID 80381)	2	0.117	33.6	36.4
CD276 (GeneID 80381)	3	0.0559	54.9	57.1
